Results taken from article PMC10516637, “FANCD2 and RAD51 recombinase directly inhibit DNA2 nuclease at stalled replication forks and FANCD2 acts as a novel RAD51 mediator in strand exchange to promote genome stability” (Nucleic Acids Research, 2023).
No constants are given. Whether binding was seen depends on the method and setting. In cells and extracts the contact can be indirect. Some binding calls cover weakened binding; strength is not graded here. For part of these data: Where a sequence is shown, tags or fusion partners need not be part of it. Blank lines part the entries; values can stand above or below the molecule they belong to.

Amino acid sequences for entries named in this document (tags omitted). A change or cut given only in a name is not applied to a line headed by its entry.
UniProt Q06609: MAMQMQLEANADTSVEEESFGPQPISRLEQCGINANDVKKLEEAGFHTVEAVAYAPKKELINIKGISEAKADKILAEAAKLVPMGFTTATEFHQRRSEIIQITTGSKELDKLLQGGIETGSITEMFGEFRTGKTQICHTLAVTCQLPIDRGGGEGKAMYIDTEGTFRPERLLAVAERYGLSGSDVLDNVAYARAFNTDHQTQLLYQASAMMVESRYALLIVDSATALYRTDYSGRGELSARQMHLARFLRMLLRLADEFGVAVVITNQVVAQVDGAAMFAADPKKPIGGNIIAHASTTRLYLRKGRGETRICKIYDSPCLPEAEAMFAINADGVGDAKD
UniProt Q9BXW9: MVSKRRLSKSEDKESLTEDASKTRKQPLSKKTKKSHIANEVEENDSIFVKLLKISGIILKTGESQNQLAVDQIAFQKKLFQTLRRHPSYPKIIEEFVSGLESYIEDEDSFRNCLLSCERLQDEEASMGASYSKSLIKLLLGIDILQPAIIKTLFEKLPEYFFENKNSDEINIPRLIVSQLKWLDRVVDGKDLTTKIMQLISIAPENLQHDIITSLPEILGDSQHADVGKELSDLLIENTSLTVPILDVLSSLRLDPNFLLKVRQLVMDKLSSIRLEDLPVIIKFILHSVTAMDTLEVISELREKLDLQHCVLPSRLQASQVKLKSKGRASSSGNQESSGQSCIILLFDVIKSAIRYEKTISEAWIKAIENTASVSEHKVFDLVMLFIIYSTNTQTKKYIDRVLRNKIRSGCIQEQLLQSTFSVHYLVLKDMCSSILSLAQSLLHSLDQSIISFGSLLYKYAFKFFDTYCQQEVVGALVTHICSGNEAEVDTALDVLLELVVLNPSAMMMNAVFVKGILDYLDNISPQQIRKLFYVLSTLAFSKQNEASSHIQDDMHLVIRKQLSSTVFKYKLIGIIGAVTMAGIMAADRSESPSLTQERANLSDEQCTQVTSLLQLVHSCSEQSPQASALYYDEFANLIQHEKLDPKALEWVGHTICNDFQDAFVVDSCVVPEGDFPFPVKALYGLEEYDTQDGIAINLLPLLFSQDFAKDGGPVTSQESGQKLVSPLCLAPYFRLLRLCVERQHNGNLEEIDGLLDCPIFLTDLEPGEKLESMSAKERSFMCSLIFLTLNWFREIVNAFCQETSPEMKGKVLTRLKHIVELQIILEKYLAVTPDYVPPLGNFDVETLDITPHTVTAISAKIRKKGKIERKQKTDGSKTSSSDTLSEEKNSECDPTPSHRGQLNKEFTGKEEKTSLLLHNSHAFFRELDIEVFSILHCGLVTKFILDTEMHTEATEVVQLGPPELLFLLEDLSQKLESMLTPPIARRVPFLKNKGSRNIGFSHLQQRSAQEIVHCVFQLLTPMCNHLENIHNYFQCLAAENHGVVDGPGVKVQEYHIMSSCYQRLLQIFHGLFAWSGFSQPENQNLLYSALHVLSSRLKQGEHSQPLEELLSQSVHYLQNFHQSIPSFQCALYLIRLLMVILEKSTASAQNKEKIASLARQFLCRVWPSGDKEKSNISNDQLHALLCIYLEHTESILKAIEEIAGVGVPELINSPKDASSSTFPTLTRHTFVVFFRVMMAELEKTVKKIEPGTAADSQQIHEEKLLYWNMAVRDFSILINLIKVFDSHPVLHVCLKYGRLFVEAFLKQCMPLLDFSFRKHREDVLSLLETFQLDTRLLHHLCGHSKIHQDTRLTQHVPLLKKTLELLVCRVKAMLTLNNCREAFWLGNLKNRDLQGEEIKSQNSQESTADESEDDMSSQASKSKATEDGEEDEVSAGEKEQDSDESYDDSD

Assays:
[1] = target: T1, FLAG-tagged human DNA2 from 293T cells (human) (UniProt P51530); experiment: co-IP; FANCD2 fragments co-immunoprecipitated with DNA2 (Figure 2G); format not told
T1 sequence: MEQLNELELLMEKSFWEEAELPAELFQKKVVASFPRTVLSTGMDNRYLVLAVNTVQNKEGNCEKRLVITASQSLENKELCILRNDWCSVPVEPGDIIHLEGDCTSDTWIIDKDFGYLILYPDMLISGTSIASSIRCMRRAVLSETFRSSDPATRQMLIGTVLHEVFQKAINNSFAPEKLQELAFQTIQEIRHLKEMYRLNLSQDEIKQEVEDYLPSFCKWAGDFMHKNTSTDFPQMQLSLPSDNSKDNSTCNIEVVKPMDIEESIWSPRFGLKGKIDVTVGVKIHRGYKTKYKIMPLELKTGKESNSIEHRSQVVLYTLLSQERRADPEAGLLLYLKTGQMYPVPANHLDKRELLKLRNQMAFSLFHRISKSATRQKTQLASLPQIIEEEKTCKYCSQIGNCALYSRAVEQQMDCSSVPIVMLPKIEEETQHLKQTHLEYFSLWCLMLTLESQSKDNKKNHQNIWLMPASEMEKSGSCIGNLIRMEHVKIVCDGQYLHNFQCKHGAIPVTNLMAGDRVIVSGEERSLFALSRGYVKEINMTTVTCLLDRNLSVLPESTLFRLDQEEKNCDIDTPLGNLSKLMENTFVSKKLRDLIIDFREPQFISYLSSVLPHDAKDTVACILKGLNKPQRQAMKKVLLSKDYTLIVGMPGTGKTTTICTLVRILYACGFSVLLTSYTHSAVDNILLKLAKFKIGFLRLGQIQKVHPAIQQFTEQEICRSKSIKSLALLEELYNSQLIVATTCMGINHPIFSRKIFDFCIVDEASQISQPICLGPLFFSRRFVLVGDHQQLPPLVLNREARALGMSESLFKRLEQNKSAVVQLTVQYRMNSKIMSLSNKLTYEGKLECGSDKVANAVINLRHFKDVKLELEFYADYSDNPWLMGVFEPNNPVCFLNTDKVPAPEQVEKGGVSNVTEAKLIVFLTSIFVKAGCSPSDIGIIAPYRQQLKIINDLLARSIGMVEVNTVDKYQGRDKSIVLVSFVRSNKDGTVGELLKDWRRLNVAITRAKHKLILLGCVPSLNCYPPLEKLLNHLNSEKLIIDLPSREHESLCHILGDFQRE

[2] = target: T2, FLAG-tagged DNA2 transfected into A549 cells (human) (UniProt P51530); experiment: co-IP; FLAG-DNA2 or empty vector transfected into A549; 2 mM HU for 3 h; lysate pulled down with FLAG M2 beads; western blot
T2 sequence: T1 sequence

[3] = target: RAD51 in cell extracts (human (endogenous in A549 and U2OS)) (UniProt Q06609); experiment: co-IP; U2OS nuclear extract treated with Benzonase; RAD51 antibody or IgG control overnight at 4 C, Protein A agarose beads; western blot
[4] = target: T3, FLAG-DNA2 over-expressed in U2OS cells (human) (UniProt P51530); experiment: co-IP; FLAG-DNA2 over expressed in U2OS; nuclear extract treated with Benzonase; pulled down with M2 beads, eluted with FLAG peptide; immunoblot
T3 sequence: T1 sequence

[5] = target: RAD51 immunoprecipitated with anti-RAD51 (Supplementary Figure S3A) (UniProt Q06609); experiment: co-IP; HU-treated cells; lysate in buffer H150 (50 mM HEPES-KOH pH 7.4, 150 mM NaCl, 0.1% NP40, 10% glycerol); anti-RAD51 (ab133534) and Protein A/G magnetic beads overnight at 4 C; western blot (Supplementary Figure S3A)
FLAG-FANCD2 (human) = FLAG-FANCD2 (human) (UniProt Q9BXW9); experiment: co-IP; HEK-293T lysates with over-expressed FLAG-DNA2 proteins supplemented with 2 nM FLAG-FANCD2; pulled down with FANCD2 antibody on magnetic beads; western blot with 3xFLAG antibody; only the target purified

Molecule: RAD51 in cell extracts (from UniProt Q06609 1-339)
binding [2]: binds

Molecule: endogenous FANCD2 (from UniProt Q9BXW9 1-1451)
binding [2]: binds
binding [3]: binds
binding [4]: binds
binding [5]: binds

B2: FLAG-tagged human DNA2 from 293T cells (enzyme, UniProt P51530 1-1060, looked up)
chain: T1 sequence
notes: human DNA2 helicase/nuclease; also called FLAG-DNA2; hDNA2; source: 293T, over-expressed, purified (M2 FLAG beads, 3x FLAG peptide elution); HEK-293T, over-expressed, in lysate
binding (FLAG-FANCD2 (human)): binds

Second part, the molecule after the results:

binding [1]: binds
Molecule: FANCD2 fragment F1, a.a. 1-588 (from UniProt Q9BXW9 1-588) (domain or fragment)

binding [1]: binds
Molecule: FANCD2 fragment F4, a.a. 1178-1451 (from UniProt Q9BXW9 1178-1451) (domain or fragment)

binding [5]: binds
B1: endogenous DNA2 (enzyme, UniProt P51530 1-1060)
chain: T1 sequence
